Drawing on PubChem BioAssay AID493014 (National Center for Advancing Translational Sciences (NCATS), 2011), this text covers AC50 for 43 compounds.

The assay is described as follows: qHTS Assay to Find Inhibitors of Chronic Active B-Cell Receptor Signaling. Conditions: ABC-DLBCL IkBa-CBG/CBR reporter, luminescence ratio (green luciferase fused to IkBa over red control in TMD8 lymphoma cells), 4 h. The gist of the method: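 TMD8 human ABC-DLBCL cells with doxycycline-inducible IκBα–green luciferase fusion and unfused red luciferase, in 0.5% FBS medium; compounds up to 46 uM, 4 h at 37C. Green/red luminescence ratio, filter-overlap corrected, fitted to concentration-response curves.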
A general note: qHTS replaces the single test concentration by a dilution series.

The mark [1] stands for this setting: measured here: CBR red luminescence, cell number.
Where [2] appears, read: measured here: IkBa-CBG green luminescence.

This is one part of the list. These are further read-outs of the screen, such as a control signal, another cell line or another target. No call is given for them. Most of these compounds were active or inconclusive in the main read-out, so they are no random draw. Potencies come from curve fits of mixed quality, noted in brackets.

As for `Cc1ccc(NC(=O)C(C)Sc2nnc(C3CC3)n2C2CC2)cc1S(=O)(=O)N1CCOCC1` (centres undefined), the half-maximal activity concentration (AC50) (usually the midpoint of the concentration-response curve, whichever way the signal moves) under setting [1] is 1.64 µM [rising, partial curve, poor fit].
On to `Cc1sc2nc(SCCO)n(-c3ccccc3)c(=O)c2c1C`, for which, under setting [1], the AC50 was 20 µM [rising, partial curve, poor fit].
As to `O=C(N/N=C/c1c(F)cccc1Cl)C1CC1`, the AC50 under setting [1] was 15.8 µM [rising, single point].
The same measure, in the same setting: to `COc1ccc(N(C(=O)c2ccncc2)S(=O)(=O)c2ccc3c4c(cccc24)C(=O)N3C)cc1` belongs 2 µM [falling, full curve]; to `CCN(CC)CCNC(=O)CCCCCn1c(=O)[nH]c2cc(C(=O)OC)ccc2c1=O`, 11.6 µM [falling, partial curve, poor fit]; to `CC(C)Cc1csc(NC(=O)c2ccc(Cl)cc2)c1C(=O)O`, 0.184 µM [falling, full curve, poor fit].
For the compound `Cc1ccc(S(=O)(=O)CC(=O)N2CCCCCC2)cc1`, under setting [1], the AC50 was 7.31 µM [rising, full curve, poor fit].
In the case of `O=C1Nc2ccc([N+](=O)[O-])cc2OC1CCN1CCN(Cc2ccc3c(c2)OCO3)CC1` (centres undefined), the AC50 under setting [1] was 11.2 µM [falling, single point].
`COc1ccc(Oc2nc(-c3ccccn3)nc3ccccc23)cc1`: the AC50 under setting [1] was 35.5 µM [falling, single point].
Consider `O=C(CCSc1nc2ccccc2o1)N1CCOCC1`, for which the AC50 under setting [1] was 13 µM [falling, partial curve].
As to `CCC(=O)Nc1ccc(S(=O)(=O)N2CCC(c3nc4ccccc4[nH]3)CC2)cc1`, under setting [1], the AC50 is 8.2 µM [rising, full curve, poor fit].
On the same count and under the same terms, to `O=C(N/N=C/C1CCCCC1)c1cc(Cl)ccc1O` belongs 0.631 µM [falling, full curve]; to `O=C(NCc1ccc(F)cc1)c1noc2c1CCCC2`, 2.82 µM [rising, full curve, poor fit].
Still for that read-out and setting: the value for `CCOC(=O)NC(=O)/C(C#N)=N/Nc1c(F)cccc1F` was 20.6 µM [rising, single point]; that for `COc1cccc2c1C(=O)C=C(C)C2=O` was 29.1 µM [falling, single point]; that for `CCOC(=O)c1sc(=S)n(C)c1NC(=O)c1ccc(OC)cc1` was 25.1 µM [rising, single point].
Consider `CS(=O)(=O)CCSc1ncccc1C(=O)NCc1cccs1`, for which, under setting [1], the AC50 was 35.5 µM [falling, single point].
As for `O=C(Nc1ccc(O)cc1)c1ccc2c(c1)C(=O)N(Cc1ccco1)C2=O`, the AC50 under setting [1] is 0.82 µM [rising, partial curve, poor fit].
On the same count and under the same terms, the value for `CCN(C(=O)C1=COCCO1)c1nc2c(C)cccc2s1` was 25.9 µM [rising, partial curve]; that for `CN(CC(=O)NCCC1=CCCCC1)S(=O)(=O)c1ccc2c(c1)CCC(=O)N2` was 4.11 µM [rising, full curve, poor fit]; that for `COc1ccc(S(=O)(=O)N(C)C)cc1NC(=O)c1ccc2c(c1)NC(=O)C(C)S2` (centres undefined) was 2.91 µM [rising, single point].
Same read-out and setting: to `Cc1cccc(CCN2C(Nc3ccccc3)=NC[C@@H]2CC(C)C)c1` belongs 16.4 µM [falling, partial curve, poor fit].
Take `O=C(Nc1ccccc1)C(Cc1cccs1)c1nn[nH]n1` (centres undefined): under setting [1], the AC50 is 29.1 µM [falling, single point].
As to `CCOC(=O)N1CCN(C(=O)CCN2C(=O)/C(=C\c3ccccc3OC)SC2=S)CC1`, under setting [1], the AC50 was 14.1 µM [falling, partial curve].
Same read-out and setting: to `CCOC(=O)Cc1cn(C(=O)OC(C)(C)C)c2ccccc12` belongs 1.03 µM [rising, full curve, poor fit].
As to `O=C(Nc1ccc2c(c1)OCO2)OCc1ccccc1`, under setting [1], the AC50 was 15.8 µM [falling, single point].
Turning to `CCCOc1nc(SCCC)nc2c1cnn2-c1ccccc1`, the AC50 under setting [1] is 7.94 µM [rising, partial curve, poor fit].
The same measure, in the same setting: to `COc1ccc(N2CCN(CCCNC(=O)Nc3ccccc3)CC2)cc1` belongs 23.1 µM [rising, partial curve]; to `CC(C)(C)C1CCc2sc(-c3nnc(CCl)o3)cc2C1` (centres undefined), 35.5 µM [falling, single point].
Still for that read-out and setting: the value for `Nc1c(C=C2C=CC(=O)C=C2)c(=O)nc2snc(SCc3ccccc3)n12` was 5.62 µM [rising, single point].
Still for that read-out and setting: the value for `Clc1ccc(CNCCC2=CCCCC2)cc1` was 29.1 µM [rising, single point]; that for `CC(=O)c1ccc(NC(=O)Nc2cccc(Cl)c2)cc1` was 0.00461 µM [rising, full curve, poor fit].
In the case of `N#CCC(=O)Nc1sc2c(c1C(N)=O)CCCC2`, the AC50 under setting [1] was 32.6 µM [falling, single point].
Turning to `COc1ccc(NC(=O)c2csc(C)c2)cc1OC`, under setting [1], the AC50 was 0.112 µM [rising, full curve].
On to `O=c1cc(CN2CCN(S(=O)(=O)/C=C/c3ccccc3)CC2)c2ccc(O)cc2o1`, for which the AC50 under setting [2] was 23.1 µM [rising, partial curve, poor fit].
With `COCC1CCN(Cc2nc(-c3ccc4c(c3)OCO4)no2)C1` (centres undefined), the AC50 under setting [1] is 22.4 µM [rising, single point].
On the same count and under the same terms, the value for `O=C(NNC(=S)NC1CCCCC1)c1ccccc1Br` was 35.5 µM [falling, single point]; that for `Cc1cc(C(=O)Nc2ccc(-n3c(C)nc4ccccc4c3=O)cc2)ccc1[N+](=O)[O-]` was 0.891 µM [falling, partial curve, poor fit].
For `CCC(C)Nc1ncnc2c1cnn2-c1ccc(F)cc1` (centres undefined), the AC50 under setting [1] is 6.31 µM [falling, partial curve].
Consider `Cn1cc(S(=O)(=O)N2CCNCC2)cc1C(N)=O`, for which the AC50 is, setting by setting: under setting [1], 8.2 µM [rising, partial curve, poor fit]; under setting [2], 32.6 µM [falling, partial curve, poor fit].
Consider `CCOC(=O)c1sc(NC(=O)CSc2nccc(C)n2)nc1C`, for which the AC50 under setting [1] is 8.91 µM [falling, partial curve].
On to `C(=C\c1ccc2ccccc2n1)/c1ccccc1`, for which, under setting [1], the AC50 is 4.47 µM [falling, partial curve].
With `COc1ccc(CN(CC2CCCO2)C(=O)c2cc3sccc3n2C)c(OC)c1` (centres undefined), the AC50 under setting [2] was 11.2 µM [falling, single point].
